Measured values published in article PMC6123687.
These are yes or no findings as the source states them, for the method shown. Binding can be weak; no strength is given. For part of these data: Sequences can lack the tags named with a protein. For part of these data: Binding seen in cells or lysates may run through a third protein.

Sequences of proteins named here, by UniProt entry; tags and fusion partners are left off. A change or cut given only in a name is not applied to a line headed by its entry.
UniProt A0A346XLJ4: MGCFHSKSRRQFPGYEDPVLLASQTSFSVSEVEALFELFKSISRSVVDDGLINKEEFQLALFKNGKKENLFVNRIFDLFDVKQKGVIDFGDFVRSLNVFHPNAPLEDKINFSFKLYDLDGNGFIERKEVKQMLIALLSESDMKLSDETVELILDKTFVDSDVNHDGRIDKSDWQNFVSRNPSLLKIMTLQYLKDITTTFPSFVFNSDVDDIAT

How the values were obtained:
[1] = target: T1, GST-CIPK1 (GST-AtCIPK1) fusion protein (Arabidopsis) (UniProt Q8RWC9); test: pull-down; GST or GST-CIPK1 on glutathione-Sepharose 4B beads, SjCBL1:HA as prey; 4°C, 1 h; 50 mM Tris-HCl pH 7.4, 100 mM NaCl, 0.05% Tween 20, 1 mM PMSF, with either 1 mM CaCl2 or 2 mM EGTA; anti-HA immunoblot; both purified
T1 sequence: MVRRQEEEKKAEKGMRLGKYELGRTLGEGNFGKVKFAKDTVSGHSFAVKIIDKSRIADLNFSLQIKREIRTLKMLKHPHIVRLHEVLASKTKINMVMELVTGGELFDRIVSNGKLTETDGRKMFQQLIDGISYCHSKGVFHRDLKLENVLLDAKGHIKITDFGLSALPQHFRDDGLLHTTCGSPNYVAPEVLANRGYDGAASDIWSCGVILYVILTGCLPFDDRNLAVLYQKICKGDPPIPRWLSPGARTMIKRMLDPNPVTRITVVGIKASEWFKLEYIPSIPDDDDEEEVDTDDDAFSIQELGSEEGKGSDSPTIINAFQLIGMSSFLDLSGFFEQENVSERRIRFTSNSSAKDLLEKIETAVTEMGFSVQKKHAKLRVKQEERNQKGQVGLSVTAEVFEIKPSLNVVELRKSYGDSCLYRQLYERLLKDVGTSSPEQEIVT

[2] = target: T2, SCFP3A^C155-CIPK1 (pMAS-SCYCE(R)⋅CIPK1) (Arabidopsis) (UniProt Q8RWC9); test: split reporter; multicolor BiFC (VENUS N173 + SCFP3A C155) in tobacco (Nicotiana benthamiana) leaf epidermal cells, Agrobacterium infiltration, confocal microscopy
T2 sequence: T1 sequence

[3] = target: T3, CIPK1-YFP^N (pUC-SPYNE⋅CIPK1) (Arabidopsis) (UniProt Q8RWC9); test: split reporter; BiFC (split YFP) in onion epidermal cells, particle bombardment, 18 h at 23°C, confocal microscopy
T3 sequence: T1 sequence

“SjCBL1 tagged with a hemagglutinin epitope (SjCBL1:HA), GST removed by thrombin (from UniProt A0A346XLJ4)” was tested. Which binding [1] did it give?
Its binding is “binds”.

How did the binding [2] turn out when “SjCBL1-VENUS^N173 (pVYNE⋅SjCBL1) (Sedirea japonica)” was run?
The binding was “binds”.

How did the binding [3] turn out when “SjCBL1-YFP^C (pUC-SPYCE⋅SjCBL1) (Sedirea japonica)” was run?
The binding was “binds”.
